Values quoted from earlier work in patent US11655474B2, “Suppression of pathological angiogenesis by inhibition of NR2F6” (Regen Biopharma, Inc., priority 2019, dated 2023).
For at least one compound, name, drawing or mass did not settle the structure.

Key:
tumor bearing animals = conditions: rapamycin-treated tumors
human microvascular ECs = human microvascular ECs cultured in tumor-conditioned medium

Compound: CO[C@H]1C[C@@H]2CC[C@@H](C)[C@@](O)(O2)C(=O)C(=O)N2CCCC[C@H]2C(=O)O[C@H]([C@H](C)C[C@@H]2CC[C@@H](O)[C@H](OC)C2)CC(=O)[C@H](C)/C=C(\C)[C@@H](O)[C@@H](OC)C(=O)[C@H](C)C[C@H](C)/C=C/C=C/C=C/1C [rapamycin]
- CD34(+) blood vessels and LYVE-1(+) lymphatic vessels (tumor bearing animals; peritumor and intratumor region): decreased
- expression of both proteins and mRNAs of VEGF-A/VEGFR-2 and VEGF-C/VEGFR-3 (tumor bearing animals): downregulated
- expression of p-4EBP1 and p-S6K1 proteins (tumor bearing animals): downregulated

Compound: O=c1cc(N2CCOCC2)oc2c(-c3ccccc3)cccc12 [LY294002]
- tumor CM-induced MDR1 up-regulation (human microvascular ECs): blocked
